Consider four molecules from patent publication US20180085400A1.

Results are given in words; binding and its absence hold for the method and conditions named. Some binding calls cover weakened binding; strength is not graded here.

The target in this assay is T1, human MICA protein (human) (UniProt Q29983).
T1 sequence (looked up): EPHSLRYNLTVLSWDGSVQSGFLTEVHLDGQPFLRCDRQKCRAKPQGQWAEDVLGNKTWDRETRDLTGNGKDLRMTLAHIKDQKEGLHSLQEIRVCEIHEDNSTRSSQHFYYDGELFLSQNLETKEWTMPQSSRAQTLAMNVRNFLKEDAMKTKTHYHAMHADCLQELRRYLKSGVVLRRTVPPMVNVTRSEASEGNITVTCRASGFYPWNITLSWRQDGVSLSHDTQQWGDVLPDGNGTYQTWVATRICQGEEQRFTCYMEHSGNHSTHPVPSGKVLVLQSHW
In words: selection from a non-immune human scFv yeast display library (MACS and flow cytometric sorting).

B1: C8 scFv (scFv)
scFv: EVQLMESGGGVVQPGGSLRLSCAGSGFTVSSNFMSWVRQAPGKGLEWVSLIYSDGSGGNTYYADSVKGRFTVSRDNSKNTLYLQMNSLREEDTALYYCARVSRRRSGRLFDLWGRGTLVTVSSGILGSGGGGSGGGGSGGGGSQSALTQPPSASGSPGQSVTISCTGTSSDVGGSNYVSWYQQHPGKVPKLIIYEVSKRPSGVPDRFSGSKSGNTASLTVSGLQAEDEADYYCSSYAGGKKVFGGGTKLTVLS
As for B1, the binding result is recorded as “binds”.

B2: C25 scFv (scFv)
scFv: QVQLQQSGPGLVKPSQTLSLTCAISGDSVSSNRGAWNWIRQSPSRGLEWLGRTYYRSRWINDYAVSVKSRITVNPDTSKNQFSLQLNSVTPEDTAVYYCARGQQERYDPWGQGTLVTVSSGSASAPTGILGSGGGGSGGGGSGGGGSSYVLTQPPSASGTPGQRVTISCSGSSSNIGRKGVYWFQQLPGTAPKVLIYGNNQRRSGVPDRFSGSRSGTSGSLAISGLRSEDEADYYCAAWDDSLNGPVFGGGTQLTVLS
Regarding B2, the binding entry is on record as “binds”.

B3: B2 scFv (scFv)
scFv: QVQLQQSGPGLVKPSQTLSLTCAISGDSVSSNSAAWNWIRQSPSRGLEWLGRTYYRSKWYNDYAVSVKSRITINPDTSTNQFSLQLNSVTPDDTAVYYCAREGAHEWADAFDIWGQGTMVTVSSGILGSGGGGSGGGGSGGGGSDIQLTQSPSSLSASVGDRVTITCQASQDISNYLNWYQQKPGKAPKLLIYDASNLETGVPPRFSGSGSGTAFTFTISSLQPEDFATYYCQQYDNLPHTFGPGTKVDIKS
Consider B3, for which the binding entry is recorded as “binds”.

B4: C11 scFv (scFv)
scFv: EVQLVESGGGLVQPGKSLKLSCEASGFTFSGYGMHWVRQAPGRGLESVAYITSSSINIKYADAVKGRFTVSRDNAKNLLFLQMNILKSEDTAMYYCARFDWDKNYWGQGTMVTVSSAGGGGSGGGGSGGGGSEFDIQMTQSPSSLPASLGDRVTINCQASQDISNYLNWYQQKPGKAPKLLIYYTNKLADGVPSRFSGSGSGRDSSFTISSLESEDIGSYYCQQYYNYPWTFGPGTKLEIKR
With B4, the binding result is given as “binds”.
